From paper PMC3748026 come the findings set out here.

Chains of the proteins cited; added tags and fusions are not shown. Lines headed by an entry give the natural chain unless they say otherwise; changes in a name come on top.
UniProt P49717: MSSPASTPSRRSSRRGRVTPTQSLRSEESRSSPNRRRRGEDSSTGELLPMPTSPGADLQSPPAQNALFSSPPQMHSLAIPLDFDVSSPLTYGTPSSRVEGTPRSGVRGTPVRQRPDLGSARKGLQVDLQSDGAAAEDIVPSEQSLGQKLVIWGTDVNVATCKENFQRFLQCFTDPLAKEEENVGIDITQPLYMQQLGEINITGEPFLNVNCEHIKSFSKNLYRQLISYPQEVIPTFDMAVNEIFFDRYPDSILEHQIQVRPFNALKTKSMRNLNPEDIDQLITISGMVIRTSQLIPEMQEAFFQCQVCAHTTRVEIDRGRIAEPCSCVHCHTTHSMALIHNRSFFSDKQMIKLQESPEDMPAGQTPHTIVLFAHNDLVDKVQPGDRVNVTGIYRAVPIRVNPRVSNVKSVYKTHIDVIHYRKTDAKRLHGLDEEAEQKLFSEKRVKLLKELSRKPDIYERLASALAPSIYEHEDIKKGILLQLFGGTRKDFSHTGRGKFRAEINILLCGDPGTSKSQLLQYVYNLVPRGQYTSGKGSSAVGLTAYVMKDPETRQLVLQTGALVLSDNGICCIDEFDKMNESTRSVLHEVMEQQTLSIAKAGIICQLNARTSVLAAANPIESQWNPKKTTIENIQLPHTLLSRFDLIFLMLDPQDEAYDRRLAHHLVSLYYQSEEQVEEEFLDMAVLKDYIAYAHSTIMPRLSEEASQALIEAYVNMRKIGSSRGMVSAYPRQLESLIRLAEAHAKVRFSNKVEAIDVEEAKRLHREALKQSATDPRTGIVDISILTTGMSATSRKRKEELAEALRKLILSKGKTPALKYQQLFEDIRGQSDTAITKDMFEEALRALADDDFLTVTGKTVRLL
UniProt P97311: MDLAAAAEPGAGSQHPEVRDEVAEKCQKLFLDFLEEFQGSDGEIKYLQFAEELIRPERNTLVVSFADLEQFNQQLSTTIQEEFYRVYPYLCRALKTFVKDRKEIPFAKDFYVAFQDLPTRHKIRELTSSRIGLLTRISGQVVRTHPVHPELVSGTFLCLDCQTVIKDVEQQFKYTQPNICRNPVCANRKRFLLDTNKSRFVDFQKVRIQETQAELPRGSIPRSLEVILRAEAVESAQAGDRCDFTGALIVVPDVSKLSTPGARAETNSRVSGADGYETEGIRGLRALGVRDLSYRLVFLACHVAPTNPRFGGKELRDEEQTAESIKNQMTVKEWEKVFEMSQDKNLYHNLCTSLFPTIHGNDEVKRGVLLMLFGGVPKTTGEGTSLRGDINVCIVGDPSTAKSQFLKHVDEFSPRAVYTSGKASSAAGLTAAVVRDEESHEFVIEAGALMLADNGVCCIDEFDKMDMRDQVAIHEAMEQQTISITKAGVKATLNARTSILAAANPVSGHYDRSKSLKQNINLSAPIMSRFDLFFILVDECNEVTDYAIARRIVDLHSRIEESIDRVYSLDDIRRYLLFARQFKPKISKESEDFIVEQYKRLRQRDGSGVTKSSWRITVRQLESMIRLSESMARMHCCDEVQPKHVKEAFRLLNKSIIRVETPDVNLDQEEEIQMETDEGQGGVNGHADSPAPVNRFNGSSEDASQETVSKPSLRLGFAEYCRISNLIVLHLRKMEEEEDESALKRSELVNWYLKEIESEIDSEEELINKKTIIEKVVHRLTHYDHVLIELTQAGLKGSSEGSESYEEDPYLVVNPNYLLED
UniProt Q61881: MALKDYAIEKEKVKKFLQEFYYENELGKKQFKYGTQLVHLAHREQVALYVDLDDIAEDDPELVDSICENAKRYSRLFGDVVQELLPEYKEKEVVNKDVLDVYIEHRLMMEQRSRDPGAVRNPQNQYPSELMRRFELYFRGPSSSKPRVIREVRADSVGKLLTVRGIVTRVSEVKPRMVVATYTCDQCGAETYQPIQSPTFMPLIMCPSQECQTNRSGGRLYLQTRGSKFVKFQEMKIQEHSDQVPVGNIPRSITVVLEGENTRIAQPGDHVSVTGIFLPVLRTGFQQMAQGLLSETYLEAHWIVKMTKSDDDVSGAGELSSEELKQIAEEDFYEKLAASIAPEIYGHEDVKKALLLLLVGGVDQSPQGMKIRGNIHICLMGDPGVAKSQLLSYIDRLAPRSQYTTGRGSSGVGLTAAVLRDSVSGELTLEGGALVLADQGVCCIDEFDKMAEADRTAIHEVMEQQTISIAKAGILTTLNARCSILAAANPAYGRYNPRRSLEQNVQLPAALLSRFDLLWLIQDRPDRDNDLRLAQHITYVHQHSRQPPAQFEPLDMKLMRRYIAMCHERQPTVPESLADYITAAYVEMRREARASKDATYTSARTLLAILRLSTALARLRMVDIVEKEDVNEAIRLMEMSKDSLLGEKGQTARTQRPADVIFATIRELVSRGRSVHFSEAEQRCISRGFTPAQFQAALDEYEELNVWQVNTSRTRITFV
UniProt Q9BRT9: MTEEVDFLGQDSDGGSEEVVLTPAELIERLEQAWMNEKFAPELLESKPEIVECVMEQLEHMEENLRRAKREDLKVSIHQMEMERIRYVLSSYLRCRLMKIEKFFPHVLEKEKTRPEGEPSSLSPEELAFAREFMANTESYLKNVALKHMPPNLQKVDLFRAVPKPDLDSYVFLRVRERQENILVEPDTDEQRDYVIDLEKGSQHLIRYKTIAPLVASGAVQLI
UniProt P97310: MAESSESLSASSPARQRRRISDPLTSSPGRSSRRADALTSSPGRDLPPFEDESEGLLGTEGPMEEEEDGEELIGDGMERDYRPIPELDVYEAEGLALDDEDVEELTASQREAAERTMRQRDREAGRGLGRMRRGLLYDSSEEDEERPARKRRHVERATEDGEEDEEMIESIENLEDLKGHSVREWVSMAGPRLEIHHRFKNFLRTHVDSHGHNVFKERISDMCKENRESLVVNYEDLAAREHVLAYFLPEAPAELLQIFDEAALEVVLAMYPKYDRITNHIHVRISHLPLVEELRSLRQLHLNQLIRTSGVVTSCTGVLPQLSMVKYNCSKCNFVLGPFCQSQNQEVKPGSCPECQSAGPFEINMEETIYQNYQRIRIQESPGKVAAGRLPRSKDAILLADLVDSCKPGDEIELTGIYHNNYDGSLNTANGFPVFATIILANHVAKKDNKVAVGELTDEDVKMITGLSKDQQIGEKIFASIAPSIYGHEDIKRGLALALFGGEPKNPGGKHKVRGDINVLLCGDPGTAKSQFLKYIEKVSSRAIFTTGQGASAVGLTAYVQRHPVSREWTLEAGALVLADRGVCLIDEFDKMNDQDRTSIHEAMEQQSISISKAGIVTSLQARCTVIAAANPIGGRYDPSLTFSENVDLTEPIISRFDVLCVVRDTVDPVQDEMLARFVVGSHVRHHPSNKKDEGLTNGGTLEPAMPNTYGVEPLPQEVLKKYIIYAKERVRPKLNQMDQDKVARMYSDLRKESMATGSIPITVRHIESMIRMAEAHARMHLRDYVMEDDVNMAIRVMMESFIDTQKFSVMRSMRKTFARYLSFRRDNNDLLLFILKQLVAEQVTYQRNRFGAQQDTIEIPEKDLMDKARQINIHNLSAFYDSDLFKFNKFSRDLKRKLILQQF

These are yes or no findings as the source states them, for the method shown. Some binding calls cover weakened binding; strength is not graded here. For part of these data: Sequences can lack the tags named with a protein.

Experiment [1] deals with mouse Mcm4/6/7 complex (His6-Mcm4, Mcm6, Mcm7-Flag) (mouse) (UniProt P49717+P97311+Q61881). Kind of experiment: native gel or EMSA; gel shift on 32P-labelled single-stranded oligonucleotide (132 mer or 37mer-dT50), 0.5 mM ATP-γ-S, 30°C 30 min; 5% native polyacrylamide gels (1x TBE, or 0.5x TBE with 5% glycerol); complexes of the two proteins on DNA; both purified. In general terms: A gel shift assay detects complexes by their altered migration in electrophoresis.

The target in experiment [2] is T1, mouse Mcm5-His6-Flag (mouse) (UniProt P49718).
T1 sequence: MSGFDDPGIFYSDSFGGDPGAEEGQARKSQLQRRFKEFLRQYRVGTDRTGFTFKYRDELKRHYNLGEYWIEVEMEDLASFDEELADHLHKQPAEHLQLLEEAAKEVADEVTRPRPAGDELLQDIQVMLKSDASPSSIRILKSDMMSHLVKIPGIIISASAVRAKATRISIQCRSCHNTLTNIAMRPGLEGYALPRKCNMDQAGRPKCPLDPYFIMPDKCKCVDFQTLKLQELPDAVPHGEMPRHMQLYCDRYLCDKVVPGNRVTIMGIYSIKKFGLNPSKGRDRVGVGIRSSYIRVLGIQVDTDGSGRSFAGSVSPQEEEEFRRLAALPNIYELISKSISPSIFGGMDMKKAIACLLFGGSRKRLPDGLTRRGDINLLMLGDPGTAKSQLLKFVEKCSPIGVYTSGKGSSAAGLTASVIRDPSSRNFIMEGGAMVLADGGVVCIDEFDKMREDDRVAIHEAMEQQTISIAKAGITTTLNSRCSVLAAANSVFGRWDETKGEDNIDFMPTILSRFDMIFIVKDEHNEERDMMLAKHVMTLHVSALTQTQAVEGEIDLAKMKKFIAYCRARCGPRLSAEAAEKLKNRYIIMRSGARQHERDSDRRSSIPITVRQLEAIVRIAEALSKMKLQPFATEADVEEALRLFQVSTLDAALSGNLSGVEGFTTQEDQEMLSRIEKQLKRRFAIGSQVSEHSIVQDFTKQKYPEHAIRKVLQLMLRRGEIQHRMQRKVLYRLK
Kind of experiment: co-purification; six mouse Mcm subunits co-expressed in insect cells; nickel-agarose, anti-Flag M2 antibody agarose (Flag on Mcm5), glycerol gradient sedimentation.

“human GINS complex (Sld5, Psf1, Psf2, Psf3) (from UniProt Q9BRT9 1-223; Q14691 1-196; Q9Y248 1-185; Q9BRX5 1-216)”: the binding result in experiment [1] is “no binding (tested: 30 to 500 ng of GINS (25 nM to 400 nM))”.

mouse Mcm2 (from UniProt P97310 1-904): the binding result in experiment [2] is listed as “binds”.

For “mouse Mcm7-His6 (from UniProt Q61881 1-719)”, the binding result in experiment [2] was “binds”.
